For some assays here: The exact form of at least one protein or probe is not confirmed. For some assays here: Where a protein sequence is shown, tags need not be part of it.

Chains of the proteins cited; added tags and fusions are not shown. Chains listed by the source or under a name are the forms on record and can include a tag or linker.
UniProt P15692, other isoform, or with tags, fused parts or gaps: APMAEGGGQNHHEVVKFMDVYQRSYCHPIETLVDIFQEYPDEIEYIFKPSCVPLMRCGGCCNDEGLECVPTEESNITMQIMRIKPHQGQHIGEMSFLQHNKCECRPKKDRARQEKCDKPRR
VEGF-165 (VEGF-A) (Homo sapiens), one chain, as listed by the source: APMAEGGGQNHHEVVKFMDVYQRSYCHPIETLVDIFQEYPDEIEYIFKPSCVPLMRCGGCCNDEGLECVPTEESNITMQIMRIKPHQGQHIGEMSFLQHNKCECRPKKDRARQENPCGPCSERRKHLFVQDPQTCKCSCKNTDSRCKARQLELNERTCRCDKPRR

Series [1] concerns the target T1, Angiopoietin-2 (Ang2) (Homo sapiens) (UniProt O15123).
T1 sequence (looked up, limits assumed): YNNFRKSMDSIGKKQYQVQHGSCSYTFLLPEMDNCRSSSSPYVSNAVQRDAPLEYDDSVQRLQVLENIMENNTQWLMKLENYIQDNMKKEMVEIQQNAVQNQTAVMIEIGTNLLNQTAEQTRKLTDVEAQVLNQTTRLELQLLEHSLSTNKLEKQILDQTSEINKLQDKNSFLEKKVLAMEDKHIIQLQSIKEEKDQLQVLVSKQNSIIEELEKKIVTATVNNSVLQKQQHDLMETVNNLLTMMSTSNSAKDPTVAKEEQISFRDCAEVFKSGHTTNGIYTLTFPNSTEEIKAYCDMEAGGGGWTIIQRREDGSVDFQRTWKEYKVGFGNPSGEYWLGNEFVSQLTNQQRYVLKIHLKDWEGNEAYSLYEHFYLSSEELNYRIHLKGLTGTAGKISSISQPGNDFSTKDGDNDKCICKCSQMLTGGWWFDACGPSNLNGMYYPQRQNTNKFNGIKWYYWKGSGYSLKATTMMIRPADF
The series is described as follows: competition with a labelled probe. The conditions noted are these: 2'-F; hexaethylene glycol (H) linker replacing UUUUA after UGCAUGCA [hexaethylene glycol (H) linker between 8 and 9, left out (replaces parent UUUUA); 2'-F (positions not stated)]; Ang2/Tie2 competition (column printed Tier2); purified recombinant protein; protein details: His tag, R&D Systems 623-AN; letters built from the parent sequence and the stated change; variant of AMSB107.

Series [2] deals with VEGF-165 (VEGF-A) (Homo sapiens). The series is described as follows: competition with a labelled probe. The conditions noted are these: purified recombinant protein.
Series [3] shares this test system. In words: flow cytometry. The conditions noted are these: purified recombinant protein.
The target of series [4] is VEGF-121 (VEGF-A) (Homo sapiens) (UniProt P15692). In words: flow cytometry. The conditions noted are these: 2'-F all nucleotides; PBSMCT, 37 C; purified recombinant protein; label: biotin; variant of AMS0433.0.
Setting [5] is: 2'-F all nucleotides, variant of AMSB107.
[6] abbreviates: 2'-F all, VEGF/VEGFR2 inhibition, protein details: R&D Systems 293-VE-050, variant of AMSB107.
The mark [7] stands for this setting: 2'-F all nucleotides, PBSMCT, 37 C, label: biotin, variant of AMS0433.0.
Where [8] appears, read: 2'-F all, protein details: R&D Systems 293-VE-050, variant of AMS0433.0.
[9] abbreviates: 2'-F, H = hexaethylene glycol linker, VEGF/VEGFR2 inhibition, protein details: R&D Systems 293-VE-050, variant of AMSB107.

On to “UGCAUGCACCAGUGAGUCGGAUCUCCGCAUAGAUAAGCCAACAAACGUACAUUCUCUGUUAGUAUUUUCUGCG [AMSB107.P6]”, for which the IC50 in series [1] came out at 35 pM; in series [2] (2'-F, hexaethylene glycol (H) linker replacing UUUUA after UGCAUGCA [hexaethylene glycol (H) linker between 8 and 9, left out (replaces parent UUUUA), 2'-F (positions not stated)], VEGF receptor competition, letters built from the parent sequence and the stated change, variant of AMSB107), 39 pM. Consider “UGCAUGCACAGUGAGUCGGAUCUCCGCAUAGAUAAGCCAACAAACGUACAUUCUCUGUUAGUAUUUUCUGCG [AMSB107.7]”, for which the Kd in series [3] (setting [5]) is more than 100000 pM. Further, the IC50 in series [2] (setting [6]) is more than 100000 pM.

For the sequence “UGAGCUCGGAUGCUCCGCAUAUCUGCG [AMS0433.12]”, the Kd in series [4] and in series [3] (setting [7]) was more than 100000 pM throughout. For the same sequence, in series [2] (setting [8]), the IC50 was more than 100000 pM. On to “UGCAUGCACCAGUGAGUCGGAUCUCCGCAUAGAUAAGCCAACAAACGUACAUUCUCUGUUAGUAUUUUCUGCG [AMSB107.27]”, for which the IC50 in series [2] (2'-F, OOOO linker as printed, VEGF/VEGFR2 inhibition, protein details: R&D Systems 293-VE-050, variant of AMSB107) amounted to 37 pM. For the sequence UGAGUCGGAUCUCCGCAUAUCUGCG [AMS0433.9], the Kd in series [4] and in series [3] (setting [7]) was more than 100000 pM throughout. Also, the IC50 in series [2] (setting [8]) was more than 100000 pM. As for “UGCAUGCAUUUUACCAGUGAGUCGGAUCUCCGCAUAGAUAAGCCAACAAACGUACAUUCUCUGUUAGUAUUUUCUGCG [AMSB107.19]”, the Kd in series [3] (2'-F, LNA at selected positions of the VEGF consensus as printed, variant of AMSB107) was more than 100000 pM. In series [2] (2'-F with LNA (L) at positions as printed, VEGF/VEGFR2 inhibition, protein details: R&D Systems 293-VE-050, variant of AMSB107), the IC50 is more than 100000 pM. Regarding “UGCAUGCAUUUUACCAGUGAGUCGGAUCUCCGCAUAGAUAAGCCAACAAAUUCUCUGUUAGUAUUUUCUGCG [AMSB107.24]”, the IC50 in series [2] (setting [9]) turned out to be 67 pM. Take “UGCAUGCAUUUUACCAGUGAGUCGGAUCUCUUUCGCAUAGAUAAGCCAACAAACGUACAUUCUCUGUUAGUAUUUUCUGCG [AMSB107.16]”: the equilibrium dissociation constant (Kd) in series [3] (setting [5]) was more than 100000 pM. Moreover, the IC50 in series [2] (setting [6]) was more than 100000 pM.

With “UGCAUGCAUUUUACCAGUGAGUCGGAUCUCCGCAUAGAUAAGCCAACAAACGUUCUCUGUUAGUAUUUUCUGCG [AMSB107.25]”, the IC50 in series [2] (setting [9]) was 61 pM. For “UGCAUGCACCAGUGAGUCGGAUCUCCGCAUAGAUAAGCCAACAAACGUACAUUCUCUGUUAGUAUUUUCUGCG [AMSB107.22]”, the IC50 in series [2] (setting [9]) is 44 pM. On to “UGCAUGCACCAGUGAGUCGGAUCUCCGCAUAGAUAAGCCAACAAACGUACAUUCUCUGUUAGUAUUUUCUGCG [AMSB107.26]”, for which, in series [2] (2'-F, OO linker as printed, VEGF/VEGFR2 inhibition, protein details: R&D Systems 293-VE-050, variant of AMSB107), the half-inhibitory concentration (IC50) turned out to be 44 pM.

Regarding “UGCAUGCAUUUUACCAGUGAGUCGGAUCUCCGCAUAGAUAAGCCAACAAACGUACAUUCUCUGUUAGUAUUUUCUGCG [AMSB107.23]”, in series [2] (2'-F, 5' H = hexaethylene glycol linker, VEGF/VEGFR2 inhibition, protein details: R&D Systems 293-VE-050, variant of AMSB107), the IC50 came out at 40 pM.

The record behind these values is patent US20230095004.
